These are yes or no findings as the source states them, for the method shown. Binding seen in cells or lysates may run through a third protein. A result given as binding can be weak or reduced; the word gives no strength.

Amino acid sequences for entries named in this document (tags omitted). A change or cut given only in a name is not applied to a line headed by its entry.
UniProt P03953: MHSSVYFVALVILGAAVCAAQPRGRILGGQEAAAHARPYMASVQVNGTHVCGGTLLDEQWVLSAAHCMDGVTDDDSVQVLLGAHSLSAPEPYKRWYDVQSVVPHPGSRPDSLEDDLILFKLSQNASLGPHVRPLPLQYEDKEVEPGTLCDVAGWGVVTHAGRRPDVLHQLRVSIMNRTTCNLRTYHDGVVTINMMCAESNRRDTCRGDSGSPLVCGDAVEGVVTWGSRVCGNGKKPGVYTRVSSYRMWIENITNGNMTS
UniProt P41241: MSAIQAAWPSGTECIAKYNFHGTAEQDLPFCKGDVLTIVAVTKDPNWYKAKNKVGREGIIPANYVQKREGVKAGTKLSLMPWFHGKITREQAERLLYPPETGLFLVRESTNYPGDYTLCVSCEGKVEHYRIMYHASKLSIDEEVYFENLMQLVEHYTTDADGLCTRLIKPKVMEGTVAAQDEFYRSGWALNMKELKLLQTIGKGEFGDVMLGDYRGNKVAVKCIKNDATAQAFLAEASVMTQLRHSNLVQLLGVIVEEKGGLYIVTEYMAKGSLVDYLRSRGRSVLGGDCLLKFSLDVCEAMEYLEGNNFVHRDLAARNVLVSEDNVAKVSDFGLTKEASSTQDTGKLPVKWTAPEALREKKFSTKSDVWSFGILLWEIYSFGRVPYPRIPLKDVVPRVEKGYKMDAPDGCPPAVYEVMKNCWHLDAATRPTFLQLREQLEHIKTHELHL

This test has as its target Adipsin (mouse (from mouse adipose tissue exosomes, in mouse CMECs; the species of the transgene's cDNA is not stated)) (UniProt P03953). The test can be described thus: co-IP; cell lysates in RIPA buffer; specific antibody with Pierce Protein A/G Magnetic Beads; SDS-PAGE and Western blot; which protein was precipitated not given.

“Tyrosine-protein kinase Csk (from UniProt P41241 1-450) (enzyme)”: the binding result is reported as “binds”.

The values above are taken from article PMC10224320.
